## Library screening results

Chains of the proteins cited; added tags and fusions are not shown.
UniProt E9BF75, entry or part of it: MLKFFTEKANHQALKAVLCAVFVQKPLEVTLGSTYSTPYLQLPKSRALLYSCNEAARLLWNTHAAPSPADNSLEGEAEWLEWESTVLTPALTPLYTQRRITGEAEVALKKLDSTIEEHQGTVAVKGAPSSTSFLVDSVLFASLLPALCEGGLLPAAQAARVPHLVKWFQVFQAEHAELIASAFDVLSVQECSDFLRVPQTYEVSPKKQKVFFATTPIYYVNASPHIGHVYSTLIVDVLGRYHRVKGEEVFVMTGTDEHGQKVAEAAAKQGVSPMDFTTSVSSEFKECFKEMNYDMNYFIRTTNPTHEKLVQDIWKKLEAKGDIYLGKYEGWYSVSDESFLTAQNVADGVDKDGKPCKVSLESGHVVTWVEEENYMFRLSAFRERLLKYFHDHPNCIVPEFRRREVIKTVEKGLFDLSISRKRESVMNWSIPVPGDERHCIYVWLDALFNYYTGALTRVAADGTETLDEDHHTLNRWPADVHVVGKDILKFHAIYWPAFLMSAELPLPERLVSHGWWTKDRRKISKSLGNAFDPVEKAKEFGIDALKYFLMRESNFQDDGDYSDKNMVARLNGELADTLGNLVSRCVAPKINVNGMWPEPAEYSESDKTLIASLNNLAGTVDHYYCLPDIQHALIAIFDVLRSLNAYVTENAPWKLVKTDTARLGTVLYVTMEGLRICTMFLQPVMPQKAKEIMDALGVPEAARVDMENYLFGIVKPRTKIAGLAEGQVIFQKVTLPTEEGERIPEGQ

A: 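Assay on Mycobacterium tuberculosis, filed only as a heat shock assay from Cornell; the read-out is not stated. The concentration is filed as 10 mM, unlikely as a test dose, so the dose is not known. Direction is inferred from retests: higher values go with stronger inhibition. Of about 69,000 compounds tested this way, about 930 (1.4%) reached 50% or more in at least one test.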
B: 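Primary screen of methionyl-tRNA synthetase; the read-out is not stated. Target: Methionyl-tRNA synthetase (putative), Leishmania donovani (UniProt E9BF75). The test concentration is not given. Values are per cent inhibition. Of about 68,000 compounds tested this way, about 24 (0.035%) reached 50% or more in at least one test.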
C: 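Whole-cell assay for inhibitors of Mycobacterium tuberculosis growth, labelled Cornell in the record; the read-out is not stated. The concentration is filed as 10 mM, unlikely as a test dose, so the dose is not known. Higher means stronger inhibition (inferred from two other growth screens of the library). About 53,000 compounds were tested under these conditions; 1.7% (about 900) showed 50% or more at least once.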

All values are in %. How 0% and 100% were set is not recorded. Most values in the screen are low, and negative values occur. Compounds were drawn at random from those tested, without regard to their results. A dash means the value is not listed here; it may have been measured.

Compound,A,B,C
CC(C)(C)S(=O)(=O)CCNC(=O)c1ccc2ccccc2c1,-14.62%,10.44%,32.6%
COc1cccc(C2(C(=O)NC3CCc4nccn4C3)CCCC2)c1 (stereo unspecified),-3.167%,5.836%,-0.7353%
CN(C)C(=O)N1CC2(CCNCC2)c2cc(F)ccc21.O=C(O)C(F)(F)F,-12.65%,-,-0.4043%
COCC1c2c(cnn2C)CCN1C(=O)c1cccn1C (stereo unspecified),-,17.14%,-
COc1cc(CNc2nncs2)cc(OC)c1OC,-10.74%,16.03%,-15.81%
Cc1n[nH]c(=O)c2c(NC(=O)CN3CCC(C)CC3)oc(C)c12,15.5%,5.744%,-40.4%
COc1cc(C(=O)NC(CC(=O)O)c2cccs2)cc(Cl)c1OC (stereo unspecified),-1.224%,5.556%,-
[H][C@@]12NCCCC[C@]1([H])N(C(=O)c1cccc(OC)c1)C[C@H]2c1ccccc1,10.44%,-,4.696%
CC(C)[C@H](Nc1nc(C2CCCC2)nc2c1cnn2C)C(N)=O,-36.52%,8.541%,9.823%
CS(=O)(=O)N1CCN(C(=O)c2cncs2)CC(C(N)=O)C1 (stereo unspecified),-0.2309%,13.95%,53.86%
CCOCC(=O)NC(C#N)c1cnn(-c2ccccc2)c1 (stereo unspecified),12.42%,11.81%,-0.5446%
CCOCc1ccc(CNC(=O)N2CCC(C(N)=O)C2)cc1 (stereo unspecified),-16.86%,20.56%,-
Cc1nc(C)c(C(=O)NCCNC(=O)c2ccc(F)cc2F)s1,-6.673%,12.38%,-3.334%
CC(C)n1ccc(CN2CCN(c3cc(NC4CC4)nc(N)n3)CC2)c1,-13.39%,14.01%,13.37%
CCN(C)S(=O)(=O)NCC(O)c1c(Cl)cccc1Cl (stereo unspecified),-2.02%,6.178%,-0.3298%
O=S(=O)(C1CC1)N1CC[C@]2(C[C@@H](Oc3ncccc3F)CO2)C1,-,3.268%,-
c1ccc2cc(OCCN3CCn4c(nnc4C4CC4)C3)ccc2c1,0.01931%,11.19%,-
CN(C)C(=O)[C@H]1C[C@H]2OCC[C@H]2N(Cc2ccc3ccccc3n2)C1,-,-0.995%,-
Cl.[H][C@@]12OCCC[C@]1([H])NC[C@H]2NC(=O)c1cnccn1,-42.37%,-,12.34%
C/C(=C/c1ccccc1)CNCc1cccc(C(N)=O)c1,-14.68%,8.179%,-11.65%
CN(C)c1cnnc(N2CCN(C(=O)CCC3CCCCC3)CC2)c1,11.3%,11.51%,12.59%
COc1c(CNC2CCc3c(F)cccc32)c(C)nn1C (stereo unspecified),-,15.3%,-
CC(CO)NC(=O)Nc1ccc(Cl)cc1OCC(F)(F)F (stereo unspecified),-12.06%,2.857%,24.49%
Cc1cc(C)n(CC2CCCCN2CC(=O)Nc2ccncc2)n1 (stereo unspecified),5.804%,9.441%,3.558%
O=C1CCC[C@]2(CN(S(=O)(=O)C3CCCCC3)C[C@H]2c2cccnc2)N1,11.78%,18.99%,10.79%
c1cnc2nc(N3CCc4c(ncn4C4CC4)C3)ccc2n1,-5.125%,13.35%,-
COc1ccc(OC)c(-n2cnnc2COC(C)C)c1,-11.61%,-,-
O=C(NCc1nnc2n1CCCC2)c1ccc(C2CCCO2)s1 (stereo unspecified),-0.4619%,10.79%,-12.15%
COc1ccccc1CN1C[C@@H]2COC[C@]2(COCc2ccncc2)C1,-,13.33%,-
COc1ccc(CCCNCc2c(C)nn(C)c2N(C)C)cc1OC,19.39%,21.78%,-
CCc1nc(C)ncc1C(=O)N1CCOC(c2nc(C)n[nH]2)C1 (stereo unspecified),-8.697%,16.91%,-35.6%
Cc1nccc(C2CCCCN2Cc2ccc(F)cc2)n1 (stereo unspecified),-31.79%,14.84%,-3.053%
OC(CN1CCC(c2ccn[nH]2)CC1)c1cc(F)ccc1F (stereo unspecified),-15.75%,10.56%,35.31%
CNC(=O)CN([C@H]1C[C@H]2CCOC[C@H]2C1)S(=O)(=O)c1ccccc1,-,5.135%,-
O=C(Cn1nc(-c2ccc(F)cc2)oc1=O)NCc1ccncc1,-4.01%,14.75%,-
O=C(c1n[nH]c2c1CCC2)N1CCCC1c1nc(-c2ccccn2)no1 (stereo unspecified),27.25%,10.26%,-
N#Cc1ccsc1NC(=O)CN1CCn2c(nnc2C2CC2)C1,2.241%,17.05%,-
CCc1cnc(C)nc1N1CCS(=O)(=O)CC1,23.21%,1.907%,15.37%
O=C1CC(c2ccccc2)c2c(c(C(=O)O)cn2-c2ccccc2)N1 (stereo unspecified),4.355%,4.393%,15.99%
CCn1nc(C)c(CN2CCNCC2)c1C,3.866%,15.83%,-
O=C(O)C(F)(F)F.[H][C@]12CCN(C(=O)c3cccs3)CC[C@]1([H])N(CCOC)CCO2,4.577%,-,-17.24%
CCN1CCC(CNCc2cc(OC)ccc2OC)C1 (stereo unspecified),0.5575%,12.38%,14.11%
COc1cc(N2CCC3(CC2)CN(CCO)c2ccccc23)ncn1,28.29%,27.47%,33.99%
O=C1CCNc2ccccc2CN1Cc1ccco1,41.47%,-1.918%,1.122%
Cc1cnccc1CN(C)C1CCN(c2ncnc3[nH]cnc23)CC1,-7.69%,18.26%,3.698%
Cc1ccsc1C(O)CNS(=O)(=O)Cc1ccc(F)cc1 (stereo unspecified),2.406%,18.65%,-12.84%
[H][C@]12C[C@@H](CN3CCCC3)N(C(C)C)[C@@]1([H])CCN(Cc1cnn(C)c1)C2,-3.841%,-,12.05%
O=C(CCN1CCOC(C(F)(F)F)C1)NCc1ccc(Cl)cc1 (stereo unspecified),-15.2%,12.2%,14.22%
CCN(CCO)C(=O)Nc1ccc(OCCOC)nc1,-11.87%,8.71%,-1.884%
COCC1CC2(CCN(C(=O)c3ccc(OC)c(Cl)c3)CC2)CO1 (stereo unspecified),-3.544%,13.73%,2.572%
CN1CCC(n2nc(Cc3cccc(Cl)c3)nc2Cn2cnnn2)CC1,-3.991%,15.16%,-24.01%
CC(NC(=O)NCCCOc1ccccc1F)c1nncn1C (stereo unspecified),17.02%,15.46%,-33.8%
COC(=O)c1ccc(C2SC(C)=Nc3c2c(=O)[nH]n3C2CCCC2)cc1 (stereo unspecified),10.2%,11.11%,30.26%
CN(Cc1cccnc1)[C@@H]1CN(C(=O)c2ccoc2)[C@@H]2CCCO[C@H]12,-,15.07%,-
Cc1nc(C2CCN(C(=O)c3cnc(N(C)C)nc3)CC2)c2sccn12,0.08115%,17.51%,-75.3%
CC1=Nc2c(c(O)nn2C(C)C)C(c2cnn(C)c2)S1 (stereo unspecified),-0.5192%,13.14%,-
COCC1c2c(cnn2CC2CC2)CCN1Cc1cc(C)on1.O=C(O)C(F)(F)F.O=C(O)C(F)(F)F (stereo unspecified),-24.98%,-,17.27%
CCN1CCN(C)C(=O)C12CCN(C(=O)Cc1ccccn1)CC2.O=C(O)C(F)(F)F,3.493%,-,13.29%
CN1CCN(Cc2ccncc2)Cc2cccnc21,-18.52%,4%,-10.42%
CCOCCS(=O)(=O)Cc1ccn(-c2cccc(F)c2)n1,-8.724%,5.707%,23.4%

The last 7 entries again:

CN(Cc1cccnc1)[C@@H]1CN(C(=O)c2ccoc2)[C@@H]2CCCO[C@H]12 gave B: 15.07%.
Cc1nc(C2CCN(C(=O)c3cnc(N(C)C)nc3)CC2)c2sccn12 gave A: 0.08115%; B: 17.51%; C: -75.3%.
CC1=Nc2c(c(O)nn2C(C)C)C(c2cnn(C)c2)S1 (stereo unspecified) gave A: -0.5192%; B: 13.14%.
COCC1c2c(cnn2CC2CC2)CCN1Cc1cc(C)on1.O=C(O)C(F)(F)F.O=C(O)C(F)(F)F (stereo unspecified) gave A: -24.98%; C: 17.27%.
CCN1CCN(C)C(=O)C12CCN(C(=O)Cc1ccccn1)CC2.O=C(O)C(F)(F)F gave A: 3.493%; C: 13.29%.
CN1CCN(Cc2ccncc2)Cc2cccnc21 gave A: -18.52%; B: 4%; C: -10.42%.
CCOCCS(=O)(=O)Cc1ccn(-c2cccc(F)c2)n1 gave A: -8.724%; B: 5.707%; C: 23.4%.

Source: ChEMBL document CHEMBL3988442, “University of Dundee, Small-Polar-MMV Screening Library” (2021).